Source: PubChem BioAssay AID493014 (National Center for Advancing Translational Sciences (NCATS), 2011)
Among all 340,000 compounds or so, about 170 (0.05%) were called active. The inconclusive results got no clear call from the source; some entries with a clear call stand among them for comparison. Calls follow the shape of the dose curve; as a rule, active = well fitted inhibition curve with a large enough effect in the signal ratio, with a control signal flat (not every such curve was filed as active); inconclusive = small, poorly fitted or top-dose-only effect, or effect the other way, or a change in a side signal; inactive = flat fitted curve, though single readings scatter; the % refers to the signal ratio. A potency beside an inconclusive call is a rough fit, not a confirmed value.

Assay: qHTS Assay to Find Inhibitors of Chronic Active B-Cell Receptor Signaling;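 as to activity change, negative = inhibition: plate controls were basal doxycycline-induced cells for no effect and cells given 10 µM MG132 for full effect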
Conditions: ABC-DLBCL IkBa-CBG/CBR reporter, luminescence ratio (green luciferase fused to IkBa over red control in TMD8 lymphoma cells), 4 h; activity change, negative = inhibition: at 46.1 µM (top of the series)
In short: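 TMD8 human ABC-DLBCL cells with doxycycline-inducible IκBα–green luciferase fusion and unfused red luciferase, in 0.5% FBS medium; compounds up to 46 uM, 4 h at 37C. Green/red luminescence ratio, filter-overlap corrected, fitted to concentration-response curves.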
Potency is read from the fitted curve at half-maximal effect.

Structure (SMILES) | activity change, negative = inhibition | Potency
CCOC(=O)C1CCN(C(=O)C2CCN(S(=O)(=O)c3cccc4cccnc34)CC2)CC1 | inconclusive: -0.194% | 
O=C(Cc1cccc(C(F)(F)F)c1)Nc1ccc(S(=O)(=O)N2CCCC2)cc1 | inactive | 
Cc1ccc(N2C(=O)Nc3ccc(Br)cc3C2(O)C(=O)NCCN(C)C)cc1C (stereo unspecified) | inconclusive: -1.13% | 
CCOC(=O)CC(=O)CSc1nc2c(cc1C#N)CCCCCC2 | inactive | 
O=C(NNC(=O)c1ccccc1O)c1ccc(NS(=O)(=O)c2ccc(F)cc2)cc1 |  | inconclusive: 20.6 µM [falling, single point]
COc1ccc(-c2nnc(OCc3ccccc3)c3ccccc23)cc1 | inconclusive: 2.49% | 
Cc1cc(S(=O)(=O)Nc2ccc(C(=O)NCc3cccnc3)cc2)ccc1F | inactive | 
O=c1[nH]nc(SCc2ccccc2)n1C1CC2C=CC1C2 (stereo unspecified) | inconclusive: 11.1% | 
CC(=O)CSc1nc2cc3c(cc2cc1C#N)OCCO3 |  | inconclusive: 3.16 µM [rising, full curve, poor fit]
CCc1nc(N)nc(N)c1-c1ccc(Cl)cc1 | inactive | 
O=C(NN=C1CCCC1)c1n[nH]c2c1CCCC2 |  | inconclusive: 25.1 µM [cytotoxic, single point]
O=C(O)c1cccc(Oc2ccc([N+](=O)[O-])cc2)c1 | inactive | 
CC(C)(C)c1ccc(C(=O)NC(=O)COC(=O)CCS(=O)(=O)c2ccccc2)cc1 | inactive | 
CC(=O)Nc1ccc(N=Cc2c(O)ccc3ccccc23)cc1 | inactive | 
CC(=O)c1cc2c(cc1NS(=O)(=O)c1ccc(C)cc1)OCCO2 | inactive | 
COc1ccc(C)cc1Nc1nc(C)nc2c1oc1ccccc12 | inconclusive: 2.46% | 
Fc1ccc(NC(=S)NCc2ccccc2Cl)cc1 | inactive | 
O=C1c2ccccc2C2=Nc3ccccc3SC(c3cccc(F)c3)C12 (stereo unspecified) |  | inconclusive: 29.1 µM [rising, single point]
CCOC(=O)c1ccc(NC(=O)c2nn(C)cc2Br)cc1 | inconclusive: -13% | 
O=C(N/N=C1/CC(c2ccccc2)Oc2ccccc21)C1CC1 (stereo unspecified) | inconclusive: 4.24% | 
COc1ccc(-c2c(C)c3cc(O)ccc3oc2=O)cc1 |  | inconclusive: 12.6 µM [falling, partial curve]

Structure (SMILES) | activity change, negative = inhibition | Potency
O=C1Cc2cc(NS(=O)(=O)c3ccc([N+](=O)[O-])cc3)cc3c2N1CCC3 | inactive | 
Cc1cccc(C(=O)NCCC(=O)Nc2ccc(F)c([N+](=O)[O-])c2)c1 | inconclusive: 2.58% | 
O=C1CCCC(=O)N1c1ccc(F)cc1 | inactive | 
O=C(Nc1ccc(Br)cc1)C1Cc2ccccc2O/C1=N\O (stereo unspecified) | inconclusive: -0.815% | 
Cc1cccc(N(CC(=O)Nc2ccccc2-c2ccccc2)S(=O)(=O)c2ccccc2)c1C |  | inconclusive: 2.31 µM [rising, full curve]
COc1ccc(C(=O)OCC(=O)N2CCN(C(=O)c3ccco3)CC2)cc1OC | inactive | 
COc1cccc(OCCNc2cc(Cl)ccc2[N+](=O)[O-])c1 | inconclusive: 2.2% | 
COc1cccc(CNc2ncnc3c2nnn3C)c1 |  | inconclusive: 11.2 µM [falling, partial curve]
O=C(CC1SC(N2CCCC2)=NC1=O)Nc1ccc(C(=O)N2CCCC(C(F)(F)F)C2)cc1 (stereo unspecified) | inconclusive: -0.685% | 
COc1cc([N+](=O)[O-])ccc1NC(=O)NCc1ccco1 | inconclusive: -11.2% | 
Cc1ccc(NC(=O)C(=O)c2cn(CC(=O)N3CCCCC3)c3ccccc23)cc1 |  | inconclusive: 18.4 µM [falling, partial curve]
Brc1ccc2c(c1)CN1CCCC1=N2 | inconclusive: 4.37% | 
Cc1cc(C)c2nc(N(CCCN(C)C)C(=O)c3ccc4c(c3)CCCC4)sc2c1 |  | inconclusive: 14.6 µM [falling, partial curve, poor fit]
NC(=O)CN1C(=O)C(=O)N(Cc2ccc(Cl)cc2)C1=O | inconclusive: 1.89% | 
O=C1/C(=C\c2cccnc2)CN(Cc2ccccc2)C/C1=C\c1cccnc1 |  | inconclusive: 1.46 µM [falling, partial curve, poor fit]
N=C(SC1CC(=O)N(c2ccc(F)cc2)C1=O)N1N=C(c2ccccc2)CC1c1ccccc1 (stereo unspecified) | inactive | 
CC(=O)[C@@]1(O)CC[C@H]2[C@@H]3C[C@H](C)C4=CC(=O)C=C[C@]4(C)[C@@]3(F)[C@@H](O)C[C@@]21C | inconclusive: -13.2% | 
O=C(CSc1nncn1-c1ccccn1)Nc1cccc(Cl)c1 | inactive | 
CCn1c(-c2ccccc2)csc1=Nc1ccc(O)cc1 |  | inconclusive: 17.8 µM [falling, partial curve]
CC(C)(C)n1nnnc1C(c1cccs1)N1CCN(Cc2ccc3c(c2)OCO3)CC1 (stereo unspecified) | inconclusive: -0.661% | 
COc1ccc(Cl)cc1NC(=O)CNCc1cccs1 |  | inconclusive: 11.2 µM [falling, partial curve]

Structure (SMILES) | activity change, negative = inhibition | Potency
CNC(=S)N1CCN(CCNC2=CC(=O)CC(C)(C)C2)CC1 | inconclusive: -0.0909% | 
COc1ccc(CN(C)S(=O)(=O)c2nnc(NC(=O)c3cccc(C)c3)s2)cc1OC | inconclusive: 13.2% | 
O=Cc1ccc2ccc3cccnc3c2n1 | inconclusive: -7.55% | 
CN(C)c1nc(OCCNC(=O)Nc2ccccc2)nc(N2CCOCC2)n1 | inconclusive: 6.52% | 
CC(=O)Oc1ccc(C(=O)Nc2ccc(S(=O)(=O)N3CCOCC3)cc2)cc1 | inconclusive: -17.7% | 
COCCn1c(C)cc(C(=O)CSc2nc3ccccc3o2)c1C | inactive | 
Cc1ccc2nc(NC(=O)CCNS(=O)(=O)c3ccc(Br)s3)sc2c1 | inconclusive: 6.47% | 
COc1ccc(NC(=S)Nc2ccccc2F)c(OC)c1 |  | inconclusive: 25.1 µM [falling, single point]
NC(=O)C1(N2CCCCC2)CCN(C(=S)Nc2cccc(Cl)c2)CC1 | inconclusive: 8.84% | 
Cc1sc2nc(CSc3ccccc3)nc(NCCN(C)C)c2c1C | inconclusive: -6.73% | 
CCn1c2ccccc2c2cc(NC(=O)C(C)C)ccc21 | inconclusive: -2.02% | 
COc1cc(/C=N/NC(=O)c2cccs2)ccc1O |  | inconclusive: 35.5 µM [rising, single point]
Cc1ccc(N/C=C/C(=O)c2ccccc2)cc1C |  | inconclusive: 23.1 µM [falling, partial curve]
Cn1c(-c2ccc(F)cc2)cnc1SCC(=O)Nc1ccccc1N1CCOCC1 |  | inconclusive: 25.9 µM [falling, partial curve]
CCOCCCNC(=O)C(c1ccc(OC)cc1)N(Cc1cccs1)C(=O)c1ccccn1 (stereo unspecified) | inconclusive: 4.81% | 
Cc1ccc(C2=NN(S(=O)(=O)c3ccccc3)C(c3ccccc3O)C2)cc1 (stereo unspecified) |  | inconclusive: 2.51 µM [falling, full curve]
CCN(CC(=O)NCc1ccc(Cl)cc1)C(=O)c1cccc(S(=O)(=O)Nc2ccc(OC)cc2)c1 | inactive | 
O=C(Nc1cccc(NC(=O)c2ccccc2[N+](=O)[O-])c1)c1ccccc1Cl | inconclusive: -14.8% | 
CC(NC(=O)c1ccco1)C1CCCO1 (stereo unspecified) | inconclusive: 13.6% | 
O=C(Nc1ccc2nc3n(c(=O)c2c1)CCCCC3)C(=O)N1CCN(c2ccccc2)CC1 | inconclusive: 20.9% | 
Cc1c(C(=O)OCC(C)(C)CN(C)C)oc2ccccc12 | inconclusive: 19.1% | 

An excerpt of these results, as comma-separated lines.
Structure (SMILES),"activity change, negative = inhibition",Potency
CNC(=S)N1CCN(CCNC2=CC(=O)CC(C)(C)C2)CC1,inconclusive: -0.0909%,
O=Cc1ccc2ccc3cccnc3c2n1,inconclusive: -7.55%,
CN(C)c1nc(OCCNC(=O)Nc2ccccc2)nc(N2CCOCC2)n1,inconclusive: 6.52%,
CC(=O)Oc1ccc(C(=O)Nc2ccc(S(=O)(=O)N3CCOCC3)cc2)cc1,inconclusive: -17.7%,
Cc1ccc2nc(NC(=O)CCNS(=O)(=O)c3ccc(Br)s3)sc2c1,inconclusive: 6.47%,
COc1ccc(NC(=S)Nc2ccccc2F)c(OC)c1,,"inconclusive: 25.1 µM [falling, single point]"
NC(=O)C1(N2CCCCC2)CCN(C(=S)Nc2cccc(Cl)c2)CC1,inconclusive: 8.84%,
Cc1sc2nc(CSc3ccccc3)nc(NCCN(C)C)c2c1C,inconclusive: -6.73%,
CCn1c2ccccc2c2cc(NC(=O)C(C)C)ccc21,inconclusive: -2.02%,
COc1cc(/C=N/NC(=O)c2cccs2)ccc1O,,"inconclusive: 35.5 µM [rising, single point]"
Cc1ccc(N/C=C/C(=O)c2ccccc2)cc1C,,"inconclusive: 23.1 µM [falling, partial curve]"
Cn1c(-c2ccc(F)cc2)cnc1SCC(=O)Nc1ccccc1N1CCOCC1,,"inconclusive: 25.9 µM [falling, partial curve]"
CCOCCCNC(=O)C(c1ccc(OC)cc1)N(Cc1cccs1)C(=O)c1ccccn1 (stereo unspecified),inconclusive: 4.81%,
CCN(CC(=O)NCc1ccc(Cl)cc1)C(=O)c1cccc(S(=O)(=O)Nc2ccc(OC)cc2)c1,inactive,
O=C(Nc1cccc(NC(=O)c2ccccc2[N+](=O)[O-])c1)c1ccccc1Cl,inconclusive: -14.8%,
CC(NC(=O)c1ccco1)C1CCCO1 (stereo unspecified),inconclusive: 13.6%,
O=C(Nc1ccc2nc3n(c(=O)c2c1)CCCCC3)C(=O)N1CCN(c2ccccc2)CC1,inconclusive: 20.9%,
Cc1c(C(=O)OCC(C)(C)CN(C)C)oc2ccccc12,inconclusive: 19.1%,

The listing continues.

Structure (SMILES) | activity change, negative = inhibition | Potency
C#CCOc1ccc(/C=N/O)cc1Cl | inconclusive: -7.5% | 
NS(=O)(=O)c1cccn1-c1ncc(C(F)(F)F)cc1Cl |  | inconclusive: 0.0366 µM [falling, full curve, poor fit]
Cc1cccc(NC(=S)NNC(=O)c2csc3c2CCC(C)C3)c1 (stereo unspecified) |  | inconclusive: 8.2 µM [rising, partial curve, poor fit]
CCOc1ccc(NC(=O)CN2CCN(CC(=O)Nc3ccc(N(C)C)cc3)CC2)cc1 | inconclusive: 9.89% | 
CCOc1ccc(NC(=O)CN2C(=O)NC(C)(c3ccc(OC(F)F)cc3)C2=O)cc1 (stereo unspecified) |  | inconclusive: 14.1 µM [falling, partial curve, poor fit]
CSc1ccccc1OCc1cc(C(=O)NC(C)CCn2cccn2)no1 (stereo unspecified) | inconclusive: -21.3% | 
Clc1ccc2c(N/N=C/c3cccc(Br)c3)ccnc2c1 | inconclusive: 11.3% | 
CN(CC(=O)Nc1ccccc1C(F)(F)F)C(=O)CSc1nnc(-c2ccncc2)n1C | inactive | 
CCOC(=O)C1(Cc2cccc(OC)c2)CCN(Cc2ccc(OC)c(OC)c2)CC1 | inconclusive: -8.21% | 
COc1ccc(C[C@H]2CN3C(=NC[C@@H]3Cc3ccc(O)cc3)N2C[C@H](C)NC(=O)CCC2CCCCC2)cc1 | inconclusive: -14.6% | 
CCOCCCn1c(=NC(=O)c2ccc(OC)c(OC)c2)c(C#N)cc2c(=O)n3cccc(C)c3nc21 | inconclusive: -2.23% | 
CC(=O)Nc1ccccc1OCC(=O)c1cc(C)n(Cc2cccs2)c1C | inconclusive: 2.48% | 
CCOC(=O)CSc1nnc(NC(=O)c2ccco2)s1 |  | inconclusive: 7.94 µM [falling, partial curve]
Cc1c(NC(=O)C(C)Sc2ncnc3ccccc23)c(=O)n(-c2ccccc2)n1C (stereo unspecified) | inconclusive: -8.47% | 
CC(C)C(c1nnnn1C1CCCCC1)N1CCOCC1 (stereo unspecified) | inconclusive: 6.69% | 
COc1ccc(NC(=S)NC2CCCC2)c(OC)c1 |  | inconclusive: 31.6 µM [rising, single point]
COc1ccc(/C(N)=N/OC(=O)c2ccc(OC)c([N+](=O)[O-])c2)cc1OC | inactive | 
CCOC(=O)N1CCN(Cc2nc3ccc([N+](=O)[O-])cc3c(=O)n2-c2ccc(OC)cc2OC)CC1 | inactive | 

Whole records as entered above.
`Cc1cccc(NC(=S)NNC(=O)c2csc3c2CCC(C)C3)c1` (stereo unspecified) is listed with Potency: inconclusive: 8.2 µM [rising, partial curve, poor fit]
`CNC(=S)N1CCN(CCNC2=CC(=O)CC(C)(C)C2)CC1` is listed with activity change, negative = inhibition: inconclusive: -0.0909%
